The record followed here is patent US20240270866A1.

The chains behind the UniProt entries cited, without tags or fusion partners. Where a name states a change or a piece, a line headed by the entry shows the natural chain unless it says otherwise.
UniProt P78324: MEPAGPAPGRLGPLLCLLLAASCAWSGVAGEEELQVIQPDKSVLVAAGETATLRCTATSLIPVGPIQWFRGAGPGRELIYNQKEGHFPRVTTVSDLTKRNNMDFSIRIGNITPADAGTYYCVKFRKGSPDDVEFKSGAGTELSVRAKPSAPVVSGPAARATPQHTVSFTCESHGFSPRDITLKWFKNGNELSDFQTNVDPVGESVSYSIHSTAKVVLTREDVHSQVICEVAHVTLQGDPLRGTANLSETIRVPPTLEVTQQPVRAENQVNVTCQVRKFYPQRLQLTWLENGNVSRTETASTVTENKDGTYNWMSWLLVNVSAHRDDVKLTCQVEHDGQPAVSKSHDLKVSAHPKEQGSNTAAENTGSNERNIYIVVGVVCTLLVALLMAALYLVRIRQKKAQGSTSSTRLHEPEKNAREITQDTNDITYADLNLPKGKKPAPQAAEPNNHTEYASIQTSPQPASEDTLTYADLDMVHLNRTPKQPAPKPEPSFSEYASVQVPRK

Sequences and labels used below:
B1: SA-13-71 (antibody, V domains shown)
VH: EVQLLESGGGLVQPGGSLRLSCAASGFTFSEWAMSWVRQAPGKGLEWVSAISGSGGSTYYADSVKGRFTISRDNSKNTLYLQMNSLRAEDTAVYYCARDGRTWGPHFYWGQGTLVTVSS
VL: DIQMTQSPSSLSASVGDRVTITCRASQSISSYLNWYQQKPGKAPKLLIYAASSLQSGVPSRFSGSGSGTDFTLTISSLQPEDFATYYCQQGYIYPPTFGGGTKVEIK
B2: SA-5-58 Fab (Fab, V domains shown)
VH: EVQLLESGGGLVQPGGSLRLSCAASGFTFDSYAMSWVRQAPGKGLEWVSAISGSGGSTYHADSVKGRFTISRDNSKNTLYLQMNSLRAEDTAVYYCAKDTGISLWSVTPPYFDLWGRGTLVTVSS
VL: DIQLTQSPSSVSASVGDRVTITCRASQDISSWLAWYQQKPGKAPKLLIYAASSLQSGVPSRFSGSGSGTDFTLTISSLQPEDFATYYCQQGYIFPRTFGGGTKVEIK
B3: SA-5-61 Fab (Fab, V domains shown)
VH: EVQLLESGGGLVQPGGSLKLSCAASGFTFDSYAMSWVRQAPGKGLEWVSAISGSGGSTYYADSVKGRFTISRDNSKNTLYLQMNSLRAEDTAVYYCAKDTGIDFWGQYPPYFDLWGRGTLVTVSS
VL: DIQLTQSPSSVSASVGDRVTITCRASQDISSWLAWYQQKPGKAPKLLIYAASSLQSGVPSRFSGSGSGTDFTLTISSLQPEDFATYYCQQGYIFPRTFGGGTKVEIK
B4: SA-5-59 Fab (Fab, V domains shown)
VH: EVQLLESGGGLVQPGGSLRLSCAASGFTFDNYAMSWVRQAPGEGLEWVSAVSGSGGSTYYADSVRGRFTISRDNSKNTLYLQMDSLRAEDTAVYYCAKDTGIDFWARTPPYFDLWGRGTLVTVSS
VL: DIQLTQSPSSVSASVGDRVTITCRASQDISSWLAWYQQKPGKAPKLLIYAASSLQSGVPSRFSGSGSGTDFTLTISSLQPEDFATYYCQQGYIFPRTFGGGTKVEIK
B5: SA-13-71 Fab (Fab, V domains shown)
VH: EVQLLESGGGLVQPGGSLRLSCAASGFTFSEWAMSWVRQAPGKGLEWVSAISGSGGSTYYADSVKGRFTISRDNSKNTLYLQMNSLRAEDTAVYYCARDGRTWGPHFYWGQGTLVTVSS
VL: DIQMTQSPSSLSASVGDRVTITCRASQSISSYLNWYQQKPGKAPKLLIYAASSLQSGVPSRFSGSGSGTDFTLTISSLQPEDFATYYCQQGYIYPPTFGGGTKVEIK
B6: SA-34 Fab (Fab, V domains shown)
VH: QVQLVQSGAEVKKPGASVKVSCKASGYTFTNYGISWVRQAPGQGLEWMGWISAYNGNTNYAQKLQGRVTMTTDTSTSTAYMELRSLRSDDTAVYYCARDVYSSYSYWGQGTLVTVSS
VL: DIQLTQSPSTLSASVGDRVTITCRASQSISSWLAWYQQKPGKAPKLLIYDASSLESGVPSRFSGSGSGTEFTLTISSLQPDDFATYYCQQYELLPPTFGGGTKVEIK

No constants are given. Whether binding was seen depends on the method and setting. Some entries that bind do so weakly or less than the wild type.

For one test, the target named is human SIRPA Fc fusion antigen (human) (UniProt P78324). The test is described as follows: ForteBio IgG avid. (In general: BLI is a label-free optical method that tracks binding on a fibre tip over time.)
Consider B1, for which the binding entry was “binds”.

The target is the same in the next test. The test is described as follows: ForteBio Fab monovalent.
For B2, the binding result is “binds”.

Consider B3, for which the binding result is on record as “binds”.

For the molecule B4, the binding result is “binds”.

Regarding B5, the binding entry was “binds”.

Turning to B6, the binding entry was “binds”.
